Where two headings read alike, the source gives them in different places. These are yes or no findings as the source states them, for the method shown. Some binding calls cover weakened binding; strength is not graded here.
Key:
Recombinant human IGF-IR [1] = target: T1, Recombinant human IGF-IR (human, UniProt P08069 31-932)
T1 construct: bought; also called rhIGFIR; rhIGF-IR

Sequences of proteins named here, by UniProt entry; tags and fusion partners are left off. Residues count along the entry.
UniProt P08069, residues 31-932: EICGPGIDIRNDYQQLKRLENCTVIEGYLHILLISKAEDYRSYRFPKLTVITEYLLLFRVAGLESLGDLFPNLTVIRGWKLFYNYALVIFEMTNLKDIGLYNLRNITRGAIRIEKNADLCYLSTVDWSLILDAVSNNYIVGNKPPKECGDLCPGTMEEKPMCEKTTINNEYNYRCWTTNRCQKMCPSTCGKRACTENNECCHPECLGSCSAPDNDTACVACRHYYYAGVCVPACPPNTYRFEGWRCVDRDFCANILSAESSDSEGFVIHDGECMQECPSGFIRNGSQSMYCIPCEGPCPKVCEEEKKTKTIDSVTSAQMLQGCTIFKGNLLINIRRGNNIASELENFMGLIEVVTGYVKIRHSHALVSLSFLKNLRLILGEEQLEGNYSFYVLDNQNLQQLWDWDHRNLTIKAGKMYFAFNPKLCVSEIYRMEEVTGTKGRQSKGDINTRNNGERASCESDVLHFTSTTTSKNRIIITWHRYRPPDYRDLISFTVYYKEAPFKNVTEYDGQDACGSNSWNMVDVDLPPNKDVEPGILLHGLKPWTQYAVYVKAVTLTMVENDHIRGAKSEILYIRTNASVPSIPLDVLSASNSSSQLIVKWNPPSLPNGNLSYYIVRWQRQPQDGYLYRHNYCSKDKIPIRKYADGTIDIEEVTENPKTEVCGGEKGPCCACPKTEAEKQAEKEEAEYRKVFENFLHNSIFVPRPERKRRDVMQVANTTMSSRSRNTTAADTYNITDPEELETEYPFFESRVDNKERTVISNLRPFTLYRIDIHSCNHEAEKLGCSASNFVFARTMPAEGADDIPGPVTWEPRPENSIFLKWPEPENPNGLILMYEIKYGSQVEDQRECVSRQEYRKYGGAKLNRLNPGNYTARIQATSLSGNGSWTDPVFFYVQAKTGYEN

Recombinant human IGF-IR [2] = target: T1, Recombinant human IGF-IR; experiment: ligand inhibition assay: competition ELISA, rhIGFIR coated, Nanobody titrated against biotinylated IGF-I (IGF-I biot @50ng/ml)
[3] = target: T2, EGFR on A431 derived membrane vesicles (human, UniProt P00533 25-1210)
T2 construct: whole, on cells; presented in membrane vesicles coated on ELISA plates, not on intact cells; also called EGFR harboring A431 vesicles; EGFR expressing A431 vesicles

[4] = target: T3, cell surface expressed EGFR (human, UniProt P00533 25-1210)
T3 construct: whole, on cells; also called EGFR on A431 tumor cells; EGFR on HER14 cells

[5] = target: T2, EGFR on A431 derived membrane vesicles; remark: listed apart in the source

Row | binding (Recombinant human IGF-IR [1]) | Binder | other results
1 | binds | PMP3G7 (VHH) VHH: DVQLVESGGGLVQAGGSLRLSCAASESISTINVMAWYRQAPGKQRELVAEITRSGRTNYVDSVKGRFTISRDNAKNTMYLQMNSLNLEDTAVYYCRTIDGSWREYWGQGTQVTVSS | –
2 | binds | PMP2C7 (VHH) VHH: QVKLEESGGGLVQPGGSLRLSCVASGRTFSNYAMGWFRQAPGQEREFVAAINWNSRSTYYADSVKGRFTISRLNARNTVYLQMNRLKPEDTAVYDCAASHDSDYGGTNANLYDYWGQGTQVTVSS | –
3 | binds | PMP1C7 (VHH, anti-IGF-IR Nanobody; tag not described; also called IGR PMP1C7) VHH: QVKLEESGGGLVQAGGSLRLSCVASGRTFSRTAMAWFRQAPGKEREFVATITWNSGTTRYADSVKGRFFISKDSAKNTIYLEMNSLEPEDTAVYYCAATAAAVITPTRGYYNYWGQGTQVTVSS | binding (Recombinant human IGF-IR [2]): binds
4 | – | 27-10-E8 (VHH, anti-EGFR Nanobody; tested as periplasmic extract or IMAC purified soluble Nanobody, tag not described; also called EGR 27-10-E8) VHH: EVQLVESGGGLVQAGGSLRLSCAASGRTFSTYTMAWFRQAPGKEREFVQGISRSDGGTYDADSVKGRFTISRDNAKNTVYLQMNSLKPEDTAVYFCAAASVKLVYVNPNRYSYWGQGTQVTVSS | binding [3]: binds; binding [4]: binds; binding [5]: binds
5 | binds | PMP4B11 (VHH) VHH: EVQLVESGGGLVQPGGSLRLSCAASGSIFTFNAMGWYRQAPGKQRELVAVIISGGSTHYVDSVKGRFTISRDNAKKMVYLQMNSLKPEDTAVYYCNVKKFGDYWGQGTQVTVSS | –

Source: patent publication US20090252681A1 (Ablynx, published 2009)
